Results from PubChem BioAssay AID540276 (National Center for Advancing Translational Sciences (NCATS), 2011).
Screen size: about 300,000 compounds; about 5,400 (1.8%) were called active. Inconclusive means that the source gave no clear call. Such entries were picked first, then a sample of the others. Calls come from the whole dose curve; tested in HEK293 cells. Potencies of inconclusive entries are doubtful fits and often do not repeat.

assay: qHTS for inhibitors of binding or entry into cells for Marburg Virus; conditions: Marburg virus pseudotyped entry inhibition, cell reporter; series mostly up to 37.8 µM
Potency is the fitted concentration of half-maximal effect.

Structure (SMILES)	Potency
Cc1ccc(C(NC(=O)N2CCOCC2)=C(Cl)Cl)cc1F	inconclusive: 18.3 µM [inhibitor, partial curve, poor fit]
Cn1c(C(=O)N[C@@H](Cc2ccccc2)C(=O)NCCC(=O)O)cc2cc(Cl)ccc21	inactive
Cc1ccc(C(=O)Cn2nnc3ccccc32)cc1C	inconclusive: 1.3 µM [activator, partial curve]
COc1cccc(-n2c(=O)c3cc(OC)c(OC)cc3n(CC(=O)Nc3cc(C)[nH]n3)c2=O)c1	inconclusive: 4.47 µM [activator, partial curve]
CCN(C(=O)c1cccs1)c1nnc(-c2ccncc2)s1	inactive
COc1cccc(/C=C/C(=O)OCC(=O)NCCNC(=O)COC(=O)/C=C/c2cccc(OC)c2)c1	inconclusive: 0.141 µM [activator, full curve, poor fit]
CCCCCCCNC(=O)c1cc(-c2ccncc2)nc2ccccc12	inconclusive: 5.62 µM [inhibitor, full curve, poor fit]
CCC1(c2ccccc2)NC(=O)N(CC(=O)NCc2ccc(C)cc2)C1=O (stereo not drawn)	inconclusive: 1.26 µM [activator, single point]
COc1ccc2o/c(=N\O)c(C(=O)Nc3ccccc3OC)cc2c1	inactive
N#Cc1c(N2CCCCC2)nc(N2CCCCC2)c2c1CCN(Cc1ccccc1)C2	inconclusive: 8.2 µM [inhibitor, single point]
O=C(NCCc1ccccc1)C1CCN(C2CCN(Cc3ccco3)CC2)CC1	inconclusive: 2.82 µM [activator, single point]
Cc1ccc(C(=O)NC(N2CCCC2)C(Cl)(Cl)Cl)cc1 (stereo not drawn)	inconclusive: 18.3 µM [activator, partial curve, poor fit]
O=C(Cn1cc(/C=N/O)c2ccccc21)N1CCOCC1	inactive
CSc1ccccc1NC(=O)CN(C)CC(=O)Nc1ccccc1C(F)(F)F	inconclusive: 4.47 µM [inhibitor, full curve, poor fit]
COc1ccc(C(=O)/C=C/c2cn(CC(O)CN3CCOCC3)c3ccccc23)cc1 (stereo not drawn)	inconclusive: 35.5 µM [inhibitor, single point]
Oc1ccccc1CNc1nccs1	inactive
CN(C)CCCNc1cc(C(C)(C)C)nc2c(-c3ccccc3)cnn12	inconclusive: 11.2 µM [inhibitor, partial curve, poor fit]
CCN(CC)c1ccc(NC(=O)COC(=O)Cc2ccsc2)cc1	inactive
CC(C)Cn1cc(F)c(=O)n(CC(C)C)c1=O	inactive
CCC(=O)Nc1ccc2c(c1)nc(CN1CCCCC1)n2C	inconclusive: 0.562 µM [inhibitor, full curve, poor fit]
COc1ccc(OCCN2C(=O)NC3(CCc4ccccc4C3)C2=O)cc1 (stereo not drawn)	inactive
Cc1ccc(/C=N/NC(=O)c2cc(C)oc2C)cc1	active: 10 µM
Cc1cc2c(n1-c1ccc(Cl)cc1)CC(C)(C)CC2=O	inactive
CC(C(=O)N1CCCc2ccccc21)N1CCN(S(=O)(=O)c2ccccc2F)CC1 (stereo not drawn)	inconclusive: 5.62 µM [activator, single point]
CCOC(=O)c1ccc(N=c2sc(C(=O)OC)cc(=O)n2-c2ccc(C(=O)OCC)cc2)cc1	inactive

Structure (SMILES)	Potency
CC1CCCN(CCOc2ccc(Br)cc2)C1 (stereo not drawn)	inconclusive: 15.8 µM [inhibitor, single point]
C/C(CCC1CC(C)(C)OC1=O)=N\NC(N)=S (stereo not drawn)	inconclusive: 1.41 µM [inhibitor, single point]
Cc1ccc(S(=O)(=O)N(C)Cc2ccc(C(=O)N/N=C3\CC(=O)CC(C)(C)C3)cc2)cc1	inactive
O=C(Cn1nc(-c2ccccc2)c2ccccc2c1=O)NCC1CCCO1 (stereo not drawn)	inconclusive: 35.5 µM [activator, single point]
CCc1nnc(NC(=O)CSc2ncc(-c3ccccc3)[nH]2)s1	inactive
Cc1cccc(NC(=O)C2CCN(c3cnccn3)CC2)c1	inactive
CCN(CC)S(=O)(=O)c1cccc(C(=O)OCC(=O)c2ccc3c(c2)OCCO3)c1	inconclusive: 1.58 µM [activator, partial curve, poor fit]
COC(=O)c1ccc(C2C(C(=O)c3cc4ccccc4o3)=C(O)C(=O)N2c2cc(C)on2)cc1 (stereo not drawn)	inactive
CCCC(=O)Nc1ccccc1NC(=O)CN(C)S(=O)(=O)c1ccc(C)cc1	inconclusive: 9.2 µM [inhibitor, partial curve, poor fit]
O=C(NC(=S)Nc1cccc2cnccc12)c1ccccc1	inconclusive: 22.4 µM [activator, partial curve, poor fit]
CS(=O)(=O)N(Cc1ccc(Cl)cc1)c1ccc(C(=O)N2CCN(c3ccccc3)CC2)cc1	inconclusive: 10.3 µM [inhibitor, partial curve]
COc1ccc(Cn2c(=O)c3ccccc3n3c(-c4cccc(OC)c4OC)nnc23)cc1	inactive
COc1ccc(S(=O)(=O)NNc2nc(C)cc(C)n2)cc1[N+](=O)[O-]	inactive
Cc1ccc(/C=N/NC(=O)c2cc(C)oc2C)o1	inactive
Cc1cccc(Cn2c(SCc3ccc(C(=O)NC4CCCC4)cc3)nc3ccncc32)c1	inconclusive: 39.8 µM [inhibitor, partial curve, poor fit]
Cc1nc2ccc([N+](=O)[O-])cc2c(=O)n1Cc1ccccc1Br	inconclusive: 15.8 µM [inhibitor, single point]
CCN(CC)S(=O)(=O)c1ccc2c(c1)N(CC(=O)NCCCN1CCN(c3cc(Cl)ccc3C)CC1)C(=O)CO2	active: 12.6 µM
CC1CCN(c2nc(-c3ccccc3O)nc3ccccc23)CC1	inactive
CCOc1ccc(Oc2cc(NC(=O)c3ccco3)cc([N+](=O)[O-])c2)cc1	inactive
COC(=O)c1sccc1NC(=O)CC1C(=O)NCCN1C(=O)Nc1ccccc1 (stereo not drawn)	inconclusive: 2.82 µM [inhibitor, single point]
O=C(CSc1nc2ccccc2n1CC(=O)N1CCCC1)Nc1nccs1	inactive
COC(=O)c1sccc1NN1C(=O)c2ccccc2C1=O	inconclusive: 6.31 µM [inhibitor, single point]
Cc1ccc(CNC(=O)CS(=O)(=O)Cc2nc(-c3ccccc3C)oc2C)cc1	inactive
CCCCCn1c(=O)[nH]c2cc(C(=O)NCc3ccccc3)ccc2c1=O	inactive
Cc1ccc(C(=O)NC2c3ccccc3-c3ccccc32)cc1	inconclusive: 0.501 µM [inhibitor, full curve]

Structure (SMILES)	Potency
CCC(/C=N/NC(=O)C1COc2ccccc2O1)CC (stereo not drawn)	inconclusive: 1.26 µM [inhibitor, partial curve, poor fit]
COC(=O)c1ccc(Cn2ccc(=O)[nH]c2=O)cc1	inconclusive: 0.708 µM [inhibitor, single point]
CC(C)CC(=O)Nc1ccccc1-c1nnn(CC(=O)N2CCc3ccccc3C2)n1	inconclusive: 0.0326 µM [inhibitor, full curve, poor fit]
COCCCNC(=O)C(=O)C1C(=O)Nc2ccccc21 (stereo not drawn)	inconclusive: 14.1 µM [activator, single point]
Oc1ccc(NCc2ccc(OCc3ccccc3)cc2)cc1	inconclusive: 3.55 µM [activator, full curve, poor fit]
CCOC(=O)c1ccc(NC(=O)Cn2nnc3ccccc32)cc1	inactive
Cc1cc(C)c(C#N)c(SCC(=O)Nc2c(C)n(C)n(-c3ccccc3)c2=O)n1	inactive
Cc1cc(C(=O)N2CCN(S(=O)(=O)c3ccccc3)CC2)c(C)o1	inconclusive: 6.31 µM [inhibitor, single point]
CN(CC(=O)Nc1ccccc1Cl)C1CCCCC1	inactive
C=CCC12C=C(OC)C(=O)C(C1=O)C(c1ccc(OC)cc1)C2C (stereo not drawn)	inactive
CCCN(CCC)S(=O)(=O)c1ccc(C(=O)Nc2nnc(CSC)o2)cc1	inconclusive: 35.5 µM [inhibitor, single point]
N#Cc1ccc(S(=O)(=O)N2CCC(N3CCCCC3)CC2)cc1	inactive
COc1cccc(/C=N/NC(=O)CN(C2=NS(=O)(=O)c3ccccc32)c2ccccc2)c1	inconclusive: 35.5 µM [inhibitor, single point]
CCOC(=O)C1CCCN(C(=O)/C(=C/c2ccco2)NC(=O)c2ccccc2)C1 (stereo not drawn)	inactive
Cc1ccc2cc(CCl)c(Cl)nc2c1	inconclusive: 1.64 µM [inhibitor, partial curve, poor fit]
COc1cc2c(cc1OC)C(c1cccc([N+](=O)[O-])c1)N(C(=O)c1ccc(F)cc1)CC2 (stereo not drawn)	inconclusive: 14.1 µM [inhibitor, single point]
Clc1ccc(Cc2noc(-c3cccs3)n2)cc1	inconclusive: 0.517 µM [activator, partial curve, poor fit]
CCOC(=O)N1CCC(NC(=O)C2CCCN(Cc3nc(-c4cccc(C)c4)oc3C)C2)CC1 (stereo not drawn)	inconclusive: 12.6 µM [inhibitor, partial curve, poor fit]
CCn1nccc1C(=O)Nc1nccs1	inactive
COc1cc(/C=C/C(=O)OCC(=O)NCc2ccco2)cc(OC)c1OC	inconclusive: 1.03 µM [activator, single point]
CCCCNC(=S)N/N=C/c1cccc(OCC)c1O	inactive
O=C(Cc1cccc2ccccc12)N/N=C1\CCCc2ccccc21	inconclusive: 10.3 µM [inhibitor, partial curve, poor fit]
Cc1nc(NCCc2ccc(F)cc2)c(C#N)c(C)c1[N+](=O)[O-]	inconclusive: 0.794 µM [inhibitor, full curve, poor fit]

A section from further up:
Structure (SMILES)	Potency
CCOC(=O)c1ccc(N=c2sc(C(=O)OC)cc(=O)n2-c2ccc(C(=O)OCC)cc2)cc1	inactive
CC1CCCN(CCOc2ccc(Br)cc2)C1 (stereo not drawn)	inconclusive: 15.8 µM [inhibitor, single point]
C/C(CCC1CC(C)(C)OC1=O)=N\NC(N)=S (stereo not drawn)	inconclusive: 1.41 µM [inhibitor, single point]
Cc1ccc(S(=O)(=O)N(C)Cc2ccc(C(=O)N/N=C3\CC(=O)CC(C)(C)C3)cc2)cc1	inactive
O=C(Cn1nc(-c2ccccc2)c2ccccc2c1=O)NCC1CCCO1 (stereo not drawn)	inconclusive: 35.5 µM [activator, single point]
CCc1nnc(NC(=O)CSc2ncc(-c3ccccc3)[nH]2)s1	inactive
Cc1cccc(NC(=O)C2CCN(c3cnccn3)CC2)c1	inactive
CCN(CC)S(=O)(=O)c1cccc(C(=O)OCC(=O)c2ccc3c(c2)OCCO3)c1	inconclusive: 1.58 µM [activator, partial curve, poor fit]
COC(=O)c1ccc(C2C(C(=O)c3cc4ccccc4o3)=C(O)C(=O)N2c2cc(C)on2)cc1 (stereo not drawn)	inactive
CCCC(=O)Nc1ccccc1NC(=O)CN(C)S(=O)(=O)c1ccc(C)cc1	inconclusive: 9.2 µM [inhibitor, partial curve, poor fit]
O=C(NC(=S)Nc1cccc2cnccc12)c1ccccc1	inconclusive: 22.4 µM [activator, partial curve, poor fit]
CS(=O)(=O)N(Cc1ccc(Cl)cc1)c1ccc(C(=O)N2CCN(c3ccccc3)CC2)cc1	inconclusive: 10.3 µM [inhibitor, partial curve]
COc1ccc(Cn2c(=O)c3ccccc3n3c(-c4cccc(OC)c4OC)nnc23)cc1	inactive
COc1ccc(S(=O)(=O)NNc2nc(C)cc(C)n2)cc1[N+](=O)[O-]	inactive
Cc1ccc(/C=N/NC(=O)c2cc(C)oc2C)o1	inactive
Cc1cccc(Cn2c(SCc3ccc(C(=O)NC4CCCC4)cc3)nc3ccncc32)c1	inconclusive: 39.8 µM [inhibitor, partial curve, poor fit]
Cc1nc2ccc([N+](=O)[O-])cc2c(=O)n1Cc1ccccc1Br	inconclusive: 15.8 µM [inhibitor, single point]
CCN(CC)S(=O)(=O)c1ccc2c(c1)N(CC(=O)NCCCN1CCN(c3cc(Cl)ccc3C)CC1)C(=O)CO2	active: 12.6 µM
CC1CCN(c2nc(-c3ccccc3O)nc3ccccc23)CC1	inactive
CCOc1ccc(Oc2cc(NC(=O)c3ccco3)cc([N+](=O)[O-])c2)cc1	inactive
COC(=O)c1sccc1NC(=O)CC1C(=O)NCCN1C(=O)Nc1ccccc1 (stereo not drawn)	inconclusive: 2.82 µM [inhibitor, single point]
O=C(CSc1nc2ccccc2n1CC(=O)N1CCCC1)Nc1nccs1	inactive
